Values quoted from earlier work, collected in US20110104257A1, “POLYMORPHISMS PREDICTIVE OF PLATINUM-COORDINATING COMPOUND-INDUCED OTOTOXICITY” (priority 2008, published 2011).
Read-outs that look alike come from different tables or passages of the source. At least one structure is not confirmed: it was looked up by name or label, or the drawing left a doubt.

Key:
[1] = tested on: aminoglycoside ototoxicity; conditions: Guinea pig
[2] = tested on: cisplatin ototoxicity; set-up: key: +, low efficacy; ++, moderate efficacy; +++, high efficacy; conditions: Rat

C[C@@H]1C[C@H]2[C@@H]3CCC4=CC(=O)C=C[C@]4(C)[C@@]3(F)[C@@H](O)C[C@]2(C)[C@@]1(O)C(=O)CO [Dexamethasone]
Efficacy of protective agent against aminoglycoside ototoxicity ([1]; Kanamycin + Ethacrynic acid): +

CCN(CC)C(=S)S [Diethyldithiocarbamate]
Degree of protection against cisplatin ototoxicity [2]: ++

O=c1c2ccccc2[se]n1-c1ccccc1 [Ebselen]
Efficacy of protective agent against aminoglycoside ototoxicity ([1]; Gentamicin): +++
Degree of protection against cisplatin ototoxicity [2]: +++
